According to the supplement of paper PMC10849652:
The list shows a part of the results.

Chains of the proteins cited; added tags and fusions are not shown. Lines headed by an entry give the natural chain unless they say otherwise; changes in a name come on top.
UniProt O95568: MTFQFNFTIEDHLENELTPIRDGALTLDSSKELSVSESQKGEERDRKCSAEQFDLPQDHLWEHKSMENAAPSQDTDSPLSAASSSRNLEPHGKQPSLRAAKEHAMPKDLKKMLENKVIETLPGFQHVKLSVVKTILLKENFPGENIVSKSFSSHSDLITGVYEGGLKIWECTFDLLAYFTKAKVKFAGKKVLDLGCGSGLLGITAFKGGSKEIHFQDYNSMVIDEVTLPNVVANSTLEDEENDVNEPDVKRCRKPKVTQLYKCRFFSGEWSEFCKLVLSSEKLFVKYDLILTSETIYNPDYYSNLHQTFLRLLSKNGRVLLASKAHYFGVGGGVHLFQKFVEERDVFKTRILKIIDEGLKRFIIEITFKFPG
UniProt Q6P2C8: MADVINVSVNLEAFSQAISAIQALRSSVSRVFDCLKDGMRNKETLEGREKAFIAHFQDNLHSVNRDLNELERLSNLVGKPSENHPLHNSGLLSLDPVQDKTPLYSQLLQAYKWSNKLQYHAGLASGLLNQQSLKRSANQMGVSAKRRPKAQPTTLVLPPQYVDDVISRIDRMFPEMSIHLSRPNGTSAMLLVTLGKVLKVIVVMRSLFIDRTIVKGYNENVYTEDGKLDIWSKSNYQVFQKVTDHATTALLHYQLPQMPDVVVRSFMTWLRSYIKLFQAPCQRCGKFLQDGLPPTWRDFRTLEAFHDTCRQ
UniProt Q68D91: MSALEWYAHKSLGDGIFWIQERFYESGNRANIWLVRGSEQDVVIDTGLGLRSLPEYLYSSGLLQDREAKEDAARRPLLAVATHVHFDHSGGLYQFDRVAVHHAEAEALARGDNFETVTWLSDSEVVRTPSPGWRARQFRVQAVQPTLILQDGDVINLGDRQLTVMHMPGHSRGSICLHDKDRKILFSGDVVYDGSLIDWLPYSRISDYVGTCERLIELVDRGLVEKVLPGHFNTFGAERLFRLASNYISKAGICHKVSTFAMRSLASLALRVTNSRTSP
UniProt Q7L2J0: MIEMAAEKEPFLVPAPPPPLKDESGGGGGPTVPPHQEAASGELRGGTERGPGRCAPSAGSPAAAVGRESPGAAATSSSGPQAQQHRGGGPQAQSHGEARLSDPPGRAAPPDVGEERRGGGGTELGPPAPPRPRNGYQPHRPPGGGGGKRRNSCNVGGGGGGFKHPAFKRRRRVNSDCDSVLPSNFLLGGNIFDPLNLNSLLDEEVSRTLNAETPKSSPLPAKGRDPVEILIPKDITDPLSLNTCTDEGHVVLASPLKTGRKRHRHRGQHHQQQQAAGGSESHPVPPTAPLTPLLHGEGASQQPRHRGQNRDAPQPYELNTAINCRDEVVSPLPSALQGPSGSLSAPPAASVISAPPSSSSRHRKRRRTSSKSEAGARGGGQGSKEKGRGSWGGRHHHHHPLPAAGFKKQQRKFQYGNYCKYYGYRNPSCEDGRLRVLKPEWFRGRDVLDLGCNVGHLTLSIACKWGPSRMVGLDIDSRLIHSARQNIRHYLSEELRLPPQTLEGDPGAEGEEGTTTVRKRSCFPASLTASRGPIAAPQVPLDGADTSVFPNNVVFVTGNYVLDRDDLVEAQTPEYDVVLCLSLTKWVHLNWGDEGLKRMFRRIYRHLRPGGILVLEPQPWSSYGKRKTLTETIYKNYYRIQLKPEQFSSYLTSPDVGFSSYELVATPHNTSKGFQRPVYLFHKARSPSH
UniProt P43243: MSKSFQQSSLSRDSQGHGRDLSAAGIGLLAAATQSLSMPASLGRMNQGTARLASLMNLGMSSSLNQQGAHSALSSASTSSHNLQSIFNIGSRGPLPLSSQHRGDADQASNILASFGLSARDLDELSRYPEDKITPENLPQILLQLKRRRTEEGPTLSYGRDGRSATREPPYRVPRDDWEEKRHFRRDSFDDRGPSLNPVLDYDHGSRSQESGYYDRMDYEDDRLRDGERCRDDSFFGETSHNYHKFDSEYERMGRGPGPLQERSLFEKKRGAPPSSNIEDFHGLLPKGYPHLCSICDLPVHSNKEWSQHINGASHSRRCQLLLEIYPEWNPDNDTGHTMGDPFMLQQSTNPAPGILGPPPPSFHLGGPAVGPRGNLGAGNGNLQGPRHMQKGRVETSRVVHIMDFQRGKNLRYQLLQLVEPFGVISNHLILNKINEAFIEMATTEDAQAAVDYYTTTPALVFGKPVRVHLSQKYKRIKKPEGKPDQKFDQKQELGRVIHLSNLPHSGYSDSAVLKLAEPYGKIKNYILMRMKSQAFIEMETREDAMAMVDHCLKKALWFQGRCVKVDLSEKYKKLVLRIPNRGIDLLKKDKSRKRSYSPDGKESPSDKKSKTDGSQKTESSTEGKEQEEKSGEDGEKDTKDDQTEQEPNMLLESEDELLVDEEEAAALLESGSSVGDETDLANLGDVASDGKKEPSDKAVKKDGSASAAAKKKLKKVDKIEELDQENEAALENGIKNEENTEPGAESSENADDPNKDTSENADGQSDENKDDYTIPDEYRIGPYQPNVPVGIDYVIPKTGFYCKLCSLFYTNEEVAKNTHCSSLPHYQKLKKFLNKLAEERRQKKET
UniProt P33992: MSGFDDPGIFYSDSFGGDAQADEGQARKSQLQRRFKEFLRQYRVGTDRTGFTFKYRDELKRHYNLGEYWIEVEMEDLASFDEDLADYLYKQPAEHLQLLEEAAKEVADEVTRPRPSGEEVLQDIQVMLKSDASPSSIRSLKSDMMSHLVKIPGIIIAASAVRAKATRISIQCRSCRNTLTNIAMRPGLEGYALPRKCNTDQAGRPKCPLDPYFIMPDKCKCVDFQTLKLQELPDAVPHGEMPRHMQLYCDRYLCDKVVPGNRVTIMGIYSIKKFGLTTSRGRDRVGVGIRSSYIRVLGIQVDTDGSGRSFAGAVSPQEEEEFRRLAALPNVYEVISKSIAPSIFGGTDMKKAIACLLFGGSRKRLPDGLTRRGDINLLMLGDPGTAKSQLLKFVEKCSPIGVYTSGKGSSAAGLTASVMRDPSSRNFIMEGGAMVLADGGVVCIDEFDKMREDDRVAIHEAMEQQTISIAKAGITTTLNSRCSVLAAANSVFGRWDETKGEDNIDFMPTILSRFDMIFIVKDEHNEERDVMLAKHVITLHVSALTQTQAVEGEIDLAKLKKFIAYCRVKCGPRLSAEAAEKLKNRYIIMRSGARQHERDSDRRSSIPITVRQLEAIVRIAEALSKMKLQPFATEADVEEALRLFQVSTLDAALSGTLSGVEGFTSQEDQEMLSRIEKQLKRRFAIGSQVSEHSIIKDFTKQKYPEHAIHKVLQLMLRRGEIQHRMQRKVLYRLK
UniProt Q9H8H3: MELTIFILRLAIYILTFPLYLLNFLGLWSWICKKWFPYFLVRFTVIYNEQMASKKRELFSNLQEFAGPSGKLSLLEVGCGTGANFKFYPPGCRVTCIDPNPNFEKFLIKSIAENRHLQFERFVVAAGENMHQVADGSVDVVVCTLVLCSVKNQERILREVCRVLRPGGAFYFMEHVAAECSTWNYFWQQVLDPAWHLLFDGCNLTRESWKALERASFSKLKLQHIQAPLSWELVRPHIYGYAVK
UniProt Q13503: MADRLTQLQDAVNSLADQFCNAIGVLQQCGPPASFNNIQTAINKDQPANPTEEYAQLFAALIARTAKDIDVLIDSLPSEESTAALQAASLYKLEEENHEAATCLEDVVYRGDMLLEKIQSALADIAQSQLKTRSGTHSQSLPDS
UniProt Q9H3U5: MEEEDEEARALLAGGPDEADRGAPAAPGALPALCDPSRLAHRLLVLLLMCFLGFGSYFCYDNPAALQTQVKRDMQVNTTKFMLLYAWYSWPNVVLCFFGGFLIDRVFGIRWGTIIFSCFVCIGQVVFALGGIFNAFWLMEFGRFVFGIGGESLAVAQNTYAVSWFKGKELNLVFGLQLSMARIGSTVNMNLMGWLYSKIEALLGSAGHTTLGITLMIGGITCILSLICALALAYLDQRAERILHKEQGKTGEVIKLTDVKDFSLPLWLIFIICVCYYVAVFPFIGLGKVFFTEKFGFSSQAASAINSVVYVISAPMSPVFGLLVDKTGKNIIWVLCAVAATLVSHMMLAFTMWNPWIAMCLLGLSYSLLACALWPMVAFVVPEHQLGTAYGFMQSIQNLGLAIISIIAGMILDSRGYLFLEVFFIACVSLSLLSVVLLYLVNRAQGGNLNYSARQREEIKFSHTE
UniProt P25205: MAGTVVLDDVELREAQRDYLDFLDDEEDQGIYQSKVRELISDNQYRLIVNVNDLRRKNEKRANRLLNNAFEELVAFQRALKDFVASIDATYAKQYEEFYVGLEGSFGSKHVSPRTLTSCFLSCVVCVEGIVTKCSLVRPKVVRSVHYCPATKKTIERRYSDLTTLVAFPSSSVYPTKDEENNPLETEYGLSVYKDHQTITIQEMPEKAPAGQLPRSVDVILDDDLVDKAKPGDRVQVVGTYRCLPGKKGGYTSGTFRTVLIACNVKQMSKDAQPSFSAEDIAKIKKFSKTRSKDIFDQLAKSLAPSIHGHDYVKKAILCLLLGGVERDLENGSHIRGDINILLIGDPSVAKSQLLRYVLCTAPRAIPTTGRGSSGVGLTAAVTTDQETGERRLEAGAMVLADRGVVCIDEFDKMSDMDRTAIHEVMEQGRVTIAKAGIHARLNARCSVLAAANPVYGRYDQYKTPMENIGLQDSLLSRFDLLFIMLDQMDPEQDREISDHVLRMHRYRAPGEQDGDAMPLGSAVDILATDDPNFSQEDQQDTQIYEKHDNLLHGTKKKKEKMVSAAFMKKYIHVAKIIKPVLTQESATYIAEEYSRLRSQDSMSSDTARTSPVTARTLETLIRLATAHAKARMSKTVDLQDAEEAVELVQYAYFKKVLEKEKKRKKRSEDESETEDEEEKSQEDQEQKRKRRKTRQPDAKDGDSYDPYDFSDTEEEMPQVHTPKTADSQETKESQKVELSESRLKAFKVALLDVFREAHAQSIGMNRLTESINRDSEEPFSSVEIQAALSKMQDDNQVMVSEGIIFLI
UniProt Q9ULK4: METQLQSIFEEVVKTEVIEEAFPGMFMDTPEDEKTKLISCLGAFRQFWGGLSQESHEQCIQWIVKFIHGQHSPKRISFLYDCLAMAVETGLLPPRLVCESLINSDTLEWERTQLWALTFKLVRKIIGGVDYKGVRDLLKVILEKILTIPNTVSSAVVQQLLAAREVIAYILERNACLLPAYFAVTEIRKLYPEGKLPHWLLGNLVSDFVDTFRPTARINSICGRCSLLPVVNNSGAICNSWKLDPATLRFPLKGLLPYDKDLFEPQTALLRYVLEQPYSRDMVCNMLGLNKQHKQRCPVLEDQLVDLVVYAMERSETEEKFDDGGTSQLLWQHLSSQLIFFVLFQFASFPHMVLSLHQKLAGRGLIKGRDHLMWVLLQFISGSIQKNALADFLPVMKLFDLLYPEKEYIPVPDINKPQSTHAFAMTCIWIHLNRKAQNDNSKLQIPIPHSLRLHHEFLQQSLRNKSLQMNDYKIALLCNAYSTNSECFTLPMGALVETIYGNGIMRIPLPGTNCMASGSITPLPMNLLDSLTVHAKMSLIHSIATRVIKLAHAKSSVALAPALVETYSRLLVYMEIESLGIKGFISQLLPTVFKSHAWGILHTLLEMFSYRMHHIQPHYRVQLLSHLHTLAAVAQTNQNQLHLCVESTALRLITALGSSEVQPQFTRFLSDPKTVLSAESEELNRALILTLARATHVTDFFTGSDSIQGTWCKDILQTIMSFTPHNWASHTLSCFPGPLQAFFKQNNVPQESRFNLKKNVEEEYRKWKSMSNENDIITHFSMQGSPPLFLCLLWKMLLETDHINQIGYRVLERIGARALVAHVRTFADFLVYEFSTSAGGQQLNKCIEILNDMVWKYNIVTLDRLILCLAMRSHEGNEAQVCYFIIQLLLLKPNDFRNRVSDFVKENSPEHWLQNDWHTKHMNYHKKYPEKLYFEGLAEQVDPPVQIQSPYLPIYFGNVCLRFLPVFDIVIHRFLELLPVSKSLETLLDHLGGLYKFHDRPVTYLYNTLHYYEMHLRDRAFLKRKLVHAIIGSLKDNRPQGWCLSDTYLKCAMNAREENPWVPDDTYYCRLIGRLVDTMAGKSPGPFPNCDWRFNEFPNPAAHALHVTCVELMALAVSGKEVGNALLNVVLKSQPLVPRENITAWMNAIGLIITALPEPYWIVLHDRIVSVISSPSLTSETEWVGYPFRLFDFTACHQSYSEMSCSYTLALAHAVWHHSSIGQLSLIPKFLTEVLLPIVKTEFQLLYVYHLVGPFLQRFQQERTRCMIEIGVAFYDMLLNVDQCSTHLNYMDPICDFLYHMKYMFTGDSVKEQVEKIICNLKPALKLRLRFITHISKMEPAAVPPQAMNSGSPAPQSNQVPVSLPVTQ
UniProt Q96PE7: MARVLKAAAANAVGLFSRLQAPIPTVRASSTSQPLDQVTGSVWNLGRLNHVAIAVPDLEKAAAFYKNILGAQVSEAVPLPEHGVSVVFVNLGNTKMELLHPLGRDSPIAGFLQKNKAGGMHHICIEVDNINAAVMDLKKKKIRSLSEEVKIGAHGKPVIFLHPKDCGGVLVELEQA

What was measured:
Experiment in all cases: log2 fold change, soluble protein after heating vs DMSO (PISA); higher = thermal stabilisation; K562 lysate, 10 uM; active = over 0.2 and 3.5 SD of the protein, either way, in both replicates (recomputed)
lapatinib = compound: CS(=O)(=O)CCNCc1ccc(-c2ccc3ncnc(Nc4ccc(OCc5cccc(F)c5)c(Cl)c4)c3c2)o1 [lapatinib]
Outline: (§1)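 To prepare the extract, K562 pellets were dounce-homogenised in PBS pH 7.4 with 1 mM MgCl2, giving crude material at 1 mg/mL protein. This was treated with 10 μM compound for 30 min, then heated in aliquots for 3 min over 48°C-58°C before pooling and addition of NP-40 to 0.5% at 4°C. Centrifugation at 21,000xg for 90 min left soluble protein in the supernatant, which TMTpro 16plex LC-MS/MS quantified with equalised channel sums. Results are log-two fold changes in thermal stability compared with solvent controls, from duplicates.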

pictilisib = compound: CS(=O)(=O)N1CCN(Cc2cc3nc(-c4cccc5[nH]ncc45)nc(N4CCOCC4)c3s2)CC1 [pictilisib]
Outline: as §1

crizotinib = compound: C[C@@H](Oc1cc(-c2cnn(C3CCNCC3)c2)cnc1N)c1c(Cl)ccc(F)c1Cl [crizotinib]
Outline: as §1

[1] = compound: C[C@H](C1=CC=C(C=C1)C(=O)NC2=C3C=CNC3=NC=C2)N
Outline: as §1

duvelisib = compound: C[C@H](Nc1ncnc2nc[nH]c12)c1cc2cccc(Cl)c2c(=O)n1-c1ccccc1 [duvelisib]
Outline: as §1

gandotinib = compound: Cc1cc(Nc2cc(CN3CCOCC3)c3nc(C)c(Cc4ccc(Cl)cc4F)n3n2)n[nH]1 [gandotinib]
Outline: as §1

tozasertib = compound: Cc1cc(Nc2cc(N3CCN(C)CC3)nc(Sc3ccc(NC(=O)C4CC4)cc3)n2)n[nH]1 [tozasertib]
Outline: as §1

doramapimod = compound: Cc1ccc(-n2nc(C(C)(C)C)cc2NC(=O)Nc2ccc(OCCN3CCOCC3)c3ccccc23)cc1 [doramapimod]
Outline: as §1

bafetinib = compound: Cc1ccc(NC(=O)c2ccc(CN3CC[C@H](N(C)C)C3)c(C(F)(F)F)c2)cc1Nc1nccc(-c2cncnc2)n1 [bafetinib]
Outline: as §1

[2] = compound: Cc1cccc(CC(=O)N2CCc3c2ccc(-c2cn(C)c4ncnc(N)c24)c3F)n1
Outline: as §1

nilotinib = compound: Cc1cn(-c2cc(NC(=O)c3ccc(C)c(Nc4nccc(-c5cccnc5)n4)c3)cc(C(F)(F)F)c2)cn1 [nilotinib]
Outline: as §1

[3] = compound: Cc1nc(Nc2n[nH]c3c2CN(C(=O)N[C@H](CN(C)C)c2ccccc2)C3(C)C)c2sccc2n1
Outline: as §1

dasatinib = compound: Cc1nc(Nc2ncc(C(=O)Nc3c(C)cccc3Cl)s2)cc(N2CCN(CCO)CC2)n1 [dasatinib]
Outline: as §1

[4] = compound: Cc1ncc(-c2ccnc(Nc3ccc(S(C)(=O)=O)cc3)n2)n1C(C)C
Outline: as §1

[5] = compound: Cn1cc(-c2ccc3c(c2)CCN3C(=O)Cc2cccc(C(F)(F)F)c2)c2c(N)ncnc21
Outline: as §1

quisinostat = compound: Cn1cc(CNCC2CCN(c3ncc(C(=O)NO)cn3)CC2)c2ccccc21 [quisinostat]
Outline: as §1

tipifarnib = compound: Cn1cncc1[C@@](N)(c1ccc(Cl)cc1)c1ccc2c(c1)c(-c1cccc(Cl)c1)cc(=O)n2C [tipifarnib]
Outline: as §1

[6] = compound: NC(=O)Nc1cc(-c2cccc(F)c2)sc1C(=O)N[C@H]1CCCNC1
Outline: as §1

[7] = compound: NC(=O)c1cnc(N[C@@H]2CCCC[C@@H]2N)nc1Nc1cccc(-n2nccn2)c1
Outline: as §1

[8] = compound: NC1(c2ccc(-c3nc4ccn5c(=O)[nH]nc5c4cc3-c3ccccc3)cc2)CCC1
Outline: as §1

Measured: log2 fold change

METTL18 (UniProt O95568)
inactive: lapatinib -0.013 | pictilisib -0.007 | crizotinib -0.058 | [1] -0.054 | duvelisib 0.013 | gandotinib 0.094 | tozasertib -0.036 | doramapimod 0.058 | bafetinib -0.05 | [2] 0.085 | nilotinib -0.027 | [3] 0.034 | dasatinib 0.212 | [4] -0.011 | [5] 0.009 | quisinostat -0.117 | tipifarnib -0.049 | [6] 0.021 | [7] 0.033 | [8] -0.084

MED27 (UniProt Q6P2C8)
inactive: lapatinib 0.012 | pictilisib 0.057 | crizotinib -0.022 | [1] 0.042 | duvelisib 0.026 | gandotinib 0.006 | tozasertib -0.038 | doramapimod 0.068 | bafetinib -0.081 | [2] -0.024 | nilotinib 0.027 | [3] -0.101 | dasatinib -0.025 | [4] 0.004 | [5] -0.005 | quisinostat -0.145 | tipifarnib 0.053 | [6] 0.042 | [7] 0 | [8] 0.023

MBLAC2 (UniProt Q68D91)
inactive: lapatinib -0.012 | pictilisib -0.008 | crizotinib 0.025 | [1] -0.027 | duvelisib 0.038 | gandotinib 0.036 | tozasertib 0.084 | doramapimod 0.033 | bafetinib -0.049 | [2] 0.006 | nilotinib 0.028 | [3] -0.076 | dasatinib -0.003 | [4] -0.126 | [5] 0.059 | quisinostat 0.026 | tipifarnib 0.08 | [6] 0 | [7] -0.005 | [8] 0.005

MEPCE (UniProt Q7L2J0)
inactive: lapatinib 0.005 | pictilisib 0.005 | crizotinib -0.007 | [1] 0.031 | duvelisib 0.005 | gandotinib -0.023 | tozasertib 0.008 | doramapimod 0.005 | bafetinib -0.018 | [2] 0 | nilotinib 0.011 | [3] 0.001 | dasatinib 0.021 | [4] -0.005 | [5] 0.033 | quisinostat 0.008 | tipifarnib -0.004 | [6] 0.009 | [7] 0 | [8] 0.023

MATR3 (UniProt P43243)
inactive: lapatinib 0.002 | pictilisib 0.009 | crizotinib -0.028 | [1] -0.136 | duvelisib 0.074 | gandotinib 0.017 | tozasertib -0.011 | doramapimod 0.153 | bafetinib -0.052 | [2] 0.07 | nilotinib -0.003 | [3] -0.009 | dasatinib -0.046 | [4] -0.005 | [5] 0.022 | quisinostat -0.119 | tipifarnib -0.06 | [6] -0.003 | [7] -0.023 | [8] -0.026

MCM5 (UniProt P33992)
inactive: lapatinib -0.011 | pictilisib 0.003 | crizotinib -0.012 | [1] -0.015 | duvelisib 0 | gandotinib -0.018 | tozasertib -0.008 | doramapimod 0.017 | bafetinib -0.007 | [2] 0.016 | nilotinib 0.004 | [3] -0.021 | dasatinib 0.021 | [4] -0.018 | [5] -0.011 | quisinostat -0.022 | tipifarnib -0.018 | [6] 0.003 | [7] -0.003 | [8] 0.013

MEAK7 (UniProt Q6P9B6)
inactive: lapatinib -0.005 | pictilisib -0.005 | crizotinib -0.006 | [1] 0.034 | duvelisib -0.011 | gandotinib 0.007 | tozasertib 0.034 | doramapimod -0.029 | bafetinib 0.002 | [2] 0.008 | nilotinib 0.027 | [3] 0 | dasatinib -0.058 | [4] 0.013 | [5] -0.06 | quisinostat -0.033 | tipifarnib 0.047 | [6] 0.05 | [7] -0.026 | [8] 0.003

METTL7A (UniProt Q9H8H3)
inactive: lapatinib 0.023 | pictilisib 0.019 | crizotinib 0.177 | [1] -0.019 | duvelisib 0.021 | gandotinib 0.226 | tozasertib -0.081 | doramapimod 0.071 | bafetinib 0.048 | [2] 0.019 | nilotinib 0.168 | [3] 0.014 | dasatinib 0.198 | [4] -0.01 | [5] 0.096 | quisinostat -0.112 | tipifarnib 0.03 | [6] -0.026 | [7] -0.055 | [8] -0.068

MED21 (UniProt Q13503)
inactive: lapatinib 0.004 | pictilisib -0.061 | crizotinib -0.072 | [1] 0.259 | duvelisib 0 | gandotinib -0.08 | tozasertib 0.203 | doramapimod -0.11 | bafetinib 0.171 | [2] 0.167 | nilotinib 0.191 | [3] 0.102 | dasatinib -0.03 | [4] 0.393 | [5] 0.007 | quisinostat 0.03 | tipifarnib 0.046 | [6] -0.044 | [7] -0.065 | [8] -0.005

MFSD1 isoform 6 (UniProt Q9H3U5)
inactive: lapatinib 0.006 | pictilisib -0.058 | crizotinib -0.03 | [1] -0.098 | duvelisib 0.034 | gandotinib 0.054 | tozasertib 0.059 | doramapimod 0.034 | bafetinib -0.006 | [2] 0.012 | nilotinib 0.232 | [3] 0.045 | dasatinib -0.086 | [4] -0.014 | [5] 0.002 | quisinostat 0.046 | tipifarnib -0.209 | [6] -0.014 | [7] 0.035 | [8] 0.073

MCM3 isoform 2 (UniProt P25205)
inactive: lapatinib 0.005 | pictilisib -0.009 | crizotinib 0.015 | [1] 0.059 | duvelisib -0.015 | gandotinib -0.025 | tozasertib -0.013 | doramapimod 0.007 | bafetinib 0.025 | [2] -0.011 | nilotinib -0.011 | [3] -0.005 | dasatinib 0.032 | [4] 0.002 | [5] 0.008 | quisinostat 0.042 | tipifarnib 0.008 | [6] -0.014 | [7] 0.003 | [8] -0.013

MEIS2 (UniProt O14770)
inactive: lapatinib 0.022 | pictilisib -0.107 | crizotinib -0.021 | [1] -0.044 | duvelisib -0.013 | gandotinib 0.045 | tozasertib -0.066 | doramapimod 0.017 | bafetinib -0.003 | [2] 0.013 | nilotinib 0.046 | [3] -0.073 | dasatinib 0.045 | [4] -0.026 | [5] -0.037 | quisinostat -0.021 | tipifarnib -0.001 | [6] 0.058 | [7] 0.016 | [8] -0.009

MED23 (UniProt Q9ULK4)
inactive: lapatinib -0.019 | pictilisib -0.024 | crizotinib 0 | [1] -0.041 | duvelisib 0.023 | gandotinib -0.111 | tozasertib 0.018 | doramapimod -0.005 | bafetinib -0.042 | [2] 0.061 | nilotinib -0.016 | [3] 0.049 | dasatinib -0.01 | [4] -0.027 | [5] 0.031 | quisinostat -0.054 | tipifarnib 0.03 | [6] 0.027 | [7] 0.02 | [8] -0.017

Taken from the listing (4 entries):
MBLAC2 (UniProt Q68D91)
inactive: lapatinib -0.012 | pictilisib -0.008 | crizotinib 0.025 | [1] -0.027 | duvelisib 0.038 | gandotinib 0.036 | tozasertib 0.084 | doramapimod 0.033 | bafetinib -0.049 | [2] 0.006 | nilotinib 0.028 | [3] -0.076 | dasatinib -0.003 | [4] -0.126 | [5] 0.059 | quisinostat 0.026 | tipifarnib 0.08 | [6] 0 | [7] -0.005 | [8] 0.005

MEPCE (UniProt Q7L2J0)
inactive: lapatinib 0.005 | pictilisib 0.005 | crizotinib -0.007 | [1] 0.031 | duvelisib 0.005 | gandotinib -0.023 | tozasertib 0.008 | doramapimod 0.005 | bafetinib -0.018 | [2] 0 | nilotinib 0.011 | [3] 0.001 | dasatinib 0.021 | [4] -0.005 | [5] 0.033 | quisinostat 0.008 | tipifarnib -0.004 | [6] 0.009 | [7] 0 | [8] 0.023

MATR3 (UniProt P43243)
inactive: lapatinib 0.002 | pictilisib 0.009 | crizotinib -0.028 | [1] -0.136 | duvelisib 0.074 | gandotinib 0.017 | tozasertib -0.011 | doramapimod 0.153 | bafetinib -0.052 | [2] 0.07 | nilotinib -0.003 | [3] -0.009 | dasatinib -0.046 | [4] -0.005 | [5] 0.022 | quisinostat -0.119 | tipifarnib -0.06 | [6] -0.003 | [7] -0.023 | [8] -0.026

MCM5 (UniProt P33992)
inactive: lapatinib -0.011 | pictilisib 0.003 | crizotinib -0.012 | [1] -0.015 | duvelisib 0 | gandotinib -0.018 | tozasertib -0.008 | doramapimod 0.017 | bafetinib -0.007 | [2] 0.016 | nilotinib 0.004 | [3] -0.021 | dasatinib 0.021 | [4] -0.018 | [5] -0.011 | quisinostat -0.022 | tipifarnib -0.018 | [6] 0.003 | [7] -0.003 | [8] 0.013

The results go on.

MED13L (UniProt Q71F56)
inactive: lapatinib 0.034 | pictilisib -0.072 | crizotinib -0.039 | [1] -0.047 | duvelisib -0.083 | gandotinib -0.005 | tozasertib -0.019 | doramapimod 0.026 | bafetinib -0.061 | [2] 0.035 | nilotinib 0.06 | [3] -0.056 | dasatinib 0.017 | [4] 0.032 | [5] 0.045 | quisinostat -0.055 | tipifarnib -0.012 | [6] 0.069 | [7] 0.014 | [8] 0.015

MCEE (UniProt Q96PE7)
inactive: lapatinib 0.09 | pictilisib 0.095 | crizotinib 0.067 | [1] -0.017 | duvelisib 0.153 | gandotinib -0.04 | tozasertib 0.071 | doramapimod -0.033 | bafetinib -0.051 | [2] 0.028 | nilotinib 0.017 | [3] -0.008 | dasatinib -0.011 | [4] 0.04 | [5] -0.362 | quisinostat 0.208 | tipifarnib 0.003 | [6] 0 | [7] 0.088 | [8] 0.026
